The text below walks through data of PMC5088412.

Sequences of proteins named here, by UniProt entry; tags and fusion partners are left off.
UniProt Q91YN9: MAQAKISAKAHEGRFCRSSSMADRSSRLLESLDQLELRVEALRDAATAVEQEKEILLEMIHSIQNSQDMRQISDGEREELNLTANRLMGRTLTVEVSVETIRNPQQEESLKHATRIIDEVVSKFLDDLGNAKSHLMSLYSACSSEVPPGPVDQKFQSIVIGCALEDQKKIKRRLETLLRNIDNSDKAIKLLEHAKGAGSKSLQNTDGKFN
UniProt P60122: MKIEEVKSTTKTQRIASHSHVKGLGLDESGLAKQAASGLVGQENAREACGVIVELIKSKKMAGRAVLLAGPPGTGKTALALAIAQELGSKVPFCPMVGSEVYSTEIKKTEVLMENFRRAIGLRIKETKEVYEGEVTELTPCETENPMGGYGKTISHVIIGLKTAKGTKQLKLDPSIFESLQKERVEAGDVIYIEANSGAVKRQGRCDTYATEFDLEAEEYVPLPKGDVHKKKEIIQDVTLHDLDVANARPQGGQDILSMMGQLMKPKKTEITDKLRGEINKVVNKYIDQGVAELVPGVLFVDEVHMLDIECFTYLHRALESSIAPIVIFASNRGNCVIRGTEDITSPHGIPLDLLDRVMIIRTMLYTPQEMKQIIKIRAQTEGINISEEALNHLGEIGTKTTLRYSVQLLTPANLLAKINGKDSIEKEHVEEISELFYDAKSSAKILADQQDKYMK

Results are given in words; binding and its absence hold for the method and conditions named. Binding seen in cells or lysates may run through a third protein. A yes stands for co-enrichment or nearness to the bait. Other partners may have been found.

B1: Cct8 (protein, UniProt P42932 1-548)
chain: MALHVPKAPGFAQMLKDGAKHFSGLEEAVYRNIQACKELAQTTRTAYGPNGMNKMVINRLEKLFVTNDAATILRELEVQHPAAKMIVMASHMQEQEVGDGTNFVLVFAGALLELAEELLRIGLSVSEVISGYEIACKKAHEILPELVCCSAKNLRDVDEVSSLLRTSIMSKQYGSETFLAKLIAQACVSIFPDSGNFNVDNIRVCKILGSGIYSSSVLHGMVFKKETEGDVTSVKDAKIAVYSCPFDGMITETKGTVLIKTAEELMNFSKGEENLMDAQVKAIAGTGANVIVTGGKVADIALHYANKYNIMLVRLNSKWDLRRLCKTVGATALPKLTPPVQEEMGHCDSVYLSEVGDTQVVVFKHEKEDGAISTIVLRGSTDNLMDDIERAVDDGVNTFKVLTRDKRLVPGGGATEIELAKQITSYGETCPGLEQYAIKKFAEAFEAIPRALAENSGVKANEVISKLYSVHQEGNKNVGLDIEAEVPAVKDMLEASILDTYLGKYWAIKLATNAAVTVLRVDQIIMAKPAGGPKPPSGKKDWDDDQND
B2: BAG5 (mouse) (protein, UniProt Q8CI32 1-447)
chain: MDMGNQHPSISRLQEIQREVKAIEPQVVGFSGLSDDKNYKRLERILTKQLFEIDSVDTEGKGDIQQARKRAAQETERLLKELEQNANHPHRIEIQNIFKEAQALVKDKIVPFYSGGNCVTDEFEEGIQDIILRLTHVKTGGKVSLRKARYRTLTKICAVQEVIEDCMKKQPSLPLSEDVHPSVAKINSVMCEVNKARGTLIALLMGVDSSETCRHLSCVLSGLIADLDALDVCGRTEIRNYRREVVEDINKLLKYLDLEEEADSTHAFDLGQNHSIIKIENVLKRMREIKNELLQAQSPPELYLRAKTELQGLIGQLDEVSLEKNPCIREARRRAVIEVQILITYLDLKEALEKRKLFPCEEHPPHKAVWEILGNLSEILGEVLSFGGNRTDKNYIRLEELLTKQLLALDAVDPQGEEKCKAARKQAVKLAQNILSYLDMKSDEWEY

The target of the assay is mutp53 R172H (mouse) (mouse (endogenous in thymic lymphomas of R172H knock-in mice)) (UniProt P02340). Briefly: affinity purification with mass spectrometry; IP with p53 antibody from thymic lymphomas (and normal thymus) of mutp53 R172H knock-in mice, LC-MS/MS.
As to “BAG2 (mouse) (from UniProt Q91YN9 1-210)”, the binding entry was “binds”.

With Pontin (from UniProt P60122 1-456), the binding entry was “binds”.

As to B1, the binding result is recorded as “binds”.

In the case of B2, the binding entry is on record as “binds”.
